In the assay the test system is CD2F1 mice, L1210 leukemia ip, survival T/C. Put plainly: NCI In Vivo Anticancer Drug Screen. Data for tumor model L1210 Leukemia (intraperitoneal) in CD2F1 (CDF1) mice. The note with it: higher T/C = longer survival. The method, boiled down: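 In this screen, transplantable tumors were grown in mice given either the compound or its vehicle. Results were expressed as the treated measurement relative to the control measurement.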

The mark [1] stands for this setting: T/C endpoint: mean survival time, dose: 200.0 mg/kg/injection, schedule: Q04DX003 (ip), vehicle: saline with Tween-80.
[2] abbreviates: T/C endpoint: mean survival time, dose: 100.0 mg/kg/injection, schedule: Q01DX009 (ip), vehicle: saline with Tween-80.
Setting [3] is: T/C endpoint: mean survival time, dose: 200.0 mg/kg/injection, schedule: Q01DX009 (ip), vehicle: saline with Tween-80.
Setting [4] is: T/C endpoint: mean survival time, dose: 50.0 mg/kg/injection, schedule: Q01DX009 (ip), vehicle: saline with Tween-80.
[5] abbreviates: T/C endpoint: mean survival time, dose: 100.0 mg/kg/injection, schedule: Q04DX003 (ip), vehicle: saline.
Setting [6] is: T/C endpoint: mean survival time, dose: 400.0 mg/kg/injection, schedule: Q01DX001 (ip), vehicle: saline.
[7] abbreviates: T/C endpoint: mean survival time, dose: 200.0 mg/kg/injection, schedule: Q01DX001 (ip), vehicle: saline with Tween-80.
The mark [8] stands for this setting: T/C endpoint: mean survival time, dose: 400.0 mg/kg/injection, schedule: Q04DX003 (ip), vehicle: saline.

The list is a part of this screen's results and no random one: it is rich in T/C values a quarter to a half above the control, in often repeated tests (any T/C) and in doses without a T/C. Other doses and runs of a compound stand elsewhere. T/C gives the treated animals as a percentage of the vehicle group. Some doses have a count of surviving animals in place of a T/C: the source holds a T/C of zero for them, seemingly a mark for toxic or unscored doses. Some survivor counts are full or nearly so, which does not show that the dose was tolerated: survival well below the control is almost never listed, so the zero probably covers shortened survival too. Survivors were counted at the toxicity check, usually on the fifth day, unless a day is given; later deaths do not show. Schedules are NCI's codes, taken here to give the interval after Q, in days (D) or hours (H), and the number of doses after X. Where survival is the endpoint, the PubChem record calls one and a half times the control and up active, and a quarter to a half above the control has no call in these data; cut-offs in other NCI protocols can differ. Some entries hold several experiments; the results are listed from low to high. Some T/C values carry the count of animals alive at the toxicity check (mostly the fifth day); without a count, all were alive then.

With `C[n+]1c(/C=C\c2ccc(Cl)cc2)ccc2ccccc21`, the survivor count is 3 of 6 (T/C endpoint: mean survival time, dose: 12.5 mg/kg/injection, schedule: Q01DX009 (ip), vehicle: saline with Tween-80); 4 of 6 (T/C endpoint: mean survival time, dose: 25.0 mg/kg/injection, schedule: Q04DX003 (ip), vehicle: saline with Tween-80); 4 of 6 (T/C endpoint: mean survival time, dose: 50.0 mg/kg/injection, schedule: Q04DX003 (ip), vehicle: saline with Tween-80); 2 of 6 (T/C endpoint: mean survival time, dose: 100.0 mg/kg/injection, schedule: Q04DX003 (ip), vehicle: saline with Tween-80); 0 of 6 under setting [1].
As to `NNC(=S)Nc1ccccc1`, the survivor count runs as follows: (T/C endpoint: mean survival time, dose: 40.0 mg/kg/injection, schedule: Q04DX003 (ip), vehicle: saline with Tween-80) 3 of 6; (T/C endpoint: mean survival time, dose: 80.0 mg/kg/injection, schedule: Q04DX003 (ip), vehicle: saline with Tween-80) 0 of 6.
For the compound `Cc1ccc(NN=O)nc1`, the T/C was 126 % of control (T/C endpoint: median survival time, dose: 3.0 mg/kg/injection, schedule: Q01DX009 (ip), vehicle: water); 125 and 131 % of control (T/C endpoint: median survival time, dose: 6.0 mg/kg/injection, schedule: Q01DX009 (ip), vehicle: water); 138 % of control (T/C endpoint: median survival time, dose: 6.25 mg/kg/injection, schedule: Q01DX009 (ip), vehicle: water); 143 % of control (T/C endpoint: median survival time, dose: 12.0 mg/kg/injection, schedule: Q01DX009 (ip), vehicle: water); 136 % of control (T/C endpoint: median survival time, dose: 12.5 mg/kg/injection, schedule: Q01DX009 (ip), vehicle: water). The survivor count reads like this: (T/C endpoint: median survival time, dose: 25.0 mg/kg/injection, schedule: Q01DX009 (ip), vehicle: water) 5 of 6; (T/C endpoint: median survival time, dose: 48.0 mg/kg/injection, schedule: Q01DX009 (ip), vehicle: water) 3 of 6.
For `NC1CCCCC1.[I][Pb]([I])([I])[I]`, the survivor count is 5 of 6 under setting [2]; 6 of 6 under setting [3]; 5 of 6 (T/C endpoint: mean survival time, dose: 400.0 mg/kg/injection, schedule: Q01DX009 (ip), vehicle: saline with Tween-80).
With `O=C(CC[n+]1ccccc1)NCCCCCCNC(=O)CC[n+]1ccccc1`, the survivor count runs as follows: (T/C endpoint: mean survival time, dose: 75.0 mg/kg/injection, schedule: Q01DX001 (ip), vehicle: saline) 0 of 6; (T/C endpoint: mean survival time, dose: 150.0 mg/kg/injection, schedule: Q01DX001 (ip), vehicle: saline) 0 of 6; (T/C endpoint: mean survival time, dose: 300.0 mg/kg/injection, schedule: Q01DX001 (ip), vehicle: saline) 0 of 6.
For the compound `Cc1c2ccccc2c(C)c2c1ccc1ccccc12`, the T/C is 135 % of control (T/C endpoint: mean survival time, dose: 9.37 mg/kg/injection, schedule: Q04DX003 (ip), vehicle: acetone); 146 % of control (T/C endpoint: mean survival time, dose: 18.75 mg/kg/injection, schedule: Q04DX003 (ip), vehicle: acetone); 136 % of control (T/C endpoint: mean survival time, dose: 37.5 mg/kg/injection, schedule: Q04DX003 (ip), vehicle: acetone); 135 % of control (T/C endpoint: mean survival time, dose: 55.0 mg/kg/injection, schedule: Q04DX003 (ip), vehicle: Klucel (hydroxypropylcellulose) (HPC)); 141 % of control (T/C endpoint: mean survival time, dose: 85.0 mg/kg/injection, schedule: Q04DX003 (ip), vehicle: Klucel (hydroxypropylcellulose) (HPC)). The survivor count runs as follows: under setting [4], 6 of 6; under setting [2], 6 of 6; under setting [1], 6 of 6; (T/C endpoint: mean survival time, dose: 400.0 mg/kg/injection, schedule: Q04DX003 (ip), vehicle: saline with Tween-80) 6 of 6.
With `CC1=NCCCN=C(C)C(C)=NCCCN=C1C.[Ni+2].[O-][Cl+3]([O-])([O-])O`, the survivor count runs as follows: (T/C endpoint: mean survival time, dose: 100.0 mg/kg/injection, schedule: Q04DX002 (ip), vehicle: saline with Tween-80) 0 of 3; under setting [5], 0 of 6; (T/C endpoint: mean survival time, dose: 200.0 mg/kg/injection, schedule: Q04DX002 (ip), vehicle: saline with Tween-80) 0 of 3.
For the compound `CCCNC(=O)Oc1cccc(NC(=O)CC)c1`, the survivor count under setting [3] is recorded as 6 of 6.
For `CC(=O)Nc1nc(CCl)cs1`, the survivor count (T/C endpoint: mean survival time, dose: 400.0 mg/kg/injection, schedule: Q01DX001 (ip), vehicle: Klucel (hydroxypropylcellulose) (HPC)) is recorded as 0 of 3.
`O=C(O)C(O)C(O)C1[O][Sb][O]C1CO` (configuration not stated): under setting [6], the survivor count is 0 of 6.
With `C/C(=N/NC(=O)c1ccccc1)c1cccc(O)c1`, under setting [3], the survivor count is given as 6 of 6.
Take `O=C(CCCC(Br)c1ccccc1)c1ccccc1` (configuration not stated): the survivor count under setting [7] is 6 of 6.
With `CCN(CC)C(=O)N1CCN(c2ccccc2)CC1`, the survivor count under setting [8] is 0 of 6.
Take `Nc1ccc(-c2ccccc2-c2ccccc2)cc1`: the survivor count (T/C endpoint: mean survival time, dose: 400.0 mg/kg/injection, schedule: Q01DX009 (ip), vehicle: acetone) was 2 of 6.
As to `CO[C@@H](C=O)O[C@@H](C=O)CO`, the T/C was 130 % of control (T/C endpoint: mean survival time, dose: 280.0 mg/kg/injection, schedule: Q01DX001 (ip), vehicle: saline) and 143 % of control [6 of 7 alive] (T/C endpoint: mean survival time, dose: 560.0 mg/kg/injection, schedule: Q01DX001 (ip), vehicle: saline).
Take `Nc1ncc(C2OC(CO)C(O)C2O)c(=O)[nH]1` (configuration not stated): the T/C (T/C endpoint: median survival time, dose: 16.0 mg/kg/injection, schedule: Q01DX005 (ip), vehicle: saline, evaluated on day 30) was 132 % of control; the T/C (T/C endpoint: median survival time, dose: 16.0 mg/kg/injection, schedule: Q01DX005 (ip), vehicle: saline, evaluated on day 45) is 136 % of control; the T/C (T/C endpoint: median survival time, dose: 32.0 mg/kg/injection, schedule: Q01DX005 (ip), vehicle: saline, evaluated on day 30) is 134 % of control; the T/C (T/C endpoint: median survival time, dose: 32.0 mg/kg/injection, schedule: Q01DX005 (ip), vehicle: saline, evaluated on day 45) was 148 % of control; the T/C (T/C endpoint: median survival time, dose: 64.0 mg/kg/injection, schedule: Q01DX005 (ip), vehicle: saline) is 145 % of control. Further, the survivor count by setting is: (T/C endpoint: median survival time, dose: 256.0 mg/kg/injection, schedule: Q01DX005 (ip), vehicle: saline) 4 of 6; (T/C endpoint: median survival time, dose: 512.0 mg/kg/injection, schedule: Q01DX005 (ip), vehicle: saline) 0 of 6.
Regarding `CCC12CN3CCc4c([nH]c5ccccc45)C(C(=O)OC)(c4cc5c(cc4OC)N(C)C4C(O)(C(=O)OC)C(OC(C)=O)C6(CC)C=CCN7CCC54C76)CC(C3)C1O2.CI.CO.[I][Hg][I]` (configuration not stated), the survivor count is given as 1 of 6 (T/C endpoint: mean survival time, dose: 200.0 mg/kg/injection, schedule: Q01DX001 (ip), vehicle: saline) and 0 of 6 under setting [6].
On to `CSc1ccc2c(c1)C(N1CCN(C)CC1)Cc1ccccc1S2` (configuration not stated), for which the survivor count under setting [4] is on record as 3 of 6.
For `CCCCCOc1nccc(N)n1`, the survivor count reads like this: under setting [7], 0 of 6; (T/C endpoint: mean survival time, dose: 400.0 mg/kg/injection, schedule: Q01DX001 (ip), vehicle: saline with Tween-80) 0 of 6.
As to `COc1ccc2c(c1)C1C=[S+]c3ccccc3C1N2` (configuration not stated), the survivor count is listed as 5 of 6 under setting [5]; 1 of 6 (T/C endpoint: mean survival time, dose: 200.0 mg/kg/injection, schedule: Q04DX003 (ip), vehicle: saline); 0 of 6 under setting [8].
For `O=S(=O)(Cl)C(Cl)(Cl)Cl`, the survivor count under setting [1] is 3 of 6.
